In the data set the test system is antisera generated to Immunogen I (hapten A-BTG). The data set can be described thus: competitive microtiter plate assay (ELISA) for salvinorin A and salvinorin B. Type of data set: binding, sheep. A general note: An ELISA detects its analyte on a solid surface through an enzyme-linked reagent.
Where [1] appears, read: Conjugate I, calibrator 0.16 ng/ml.
The mark [2] stands for this setting: Conjugate I, calibrator 0.31 ng/ml.
The mark [3] stands for this setting: Conjugate I, calibrator 0.63 ng/ml.
The mark [4] stands for this setting: Conjugate I, calibrator 1.25 ng/ml.
[5] abbreviates: Conjugate I, calibrator 2.50 ng/ml.
Setting [6] is: Conjugate I, calibrator 5.00 ng/ml.
The mark [7] stands for this setting: Conjugate I, calibrator 10.00 ng/ml.
Setting [8] is: Conjugate II, calibrator 0.16 ng/ml.
[9] abbreviates: Conjugate II, calibrator 0.31 ng/ml.
The mark [10] stands for this setting: Conjugate II, calibrator 0.63 ng/ml.
The mark [11] stands for this setting: Conjugate II, calibrator 1.25 ng/ml.
The mark [12] stands for this setting: Conjugate II, calibrator 2.50 ng/ml.
[13] abbreviates: Conjugate II, calibrator 5.00 ng/ml.
The mark [14] stands for this setting: Conjugate II, calibrator 10.00 ng/ml.

Each structure is given as a SMILES string.

With `COC(=O)[C@@H]1C[C@H](OC(C)=O)C(=O)[C@H]2[C@@]1(C)CC[C@H]1C(=O)O[C@H](c3ccoc3)C[C@]21C` [Salvinorin A], the “AS (analytical sensitivity)” value (Conjugate I, A450 of zero standard minus 2 SD, 20 replicates) came out at 0.013 ng/mL. For the same compound, the A450 is reported as 1.255 under setting [1]; 0.970 under setting [2]; 0.724 under setting [3]; 0.520 under setting [4]; 0.373 under setting [5]; 0.272 under setting [6]. Also, the A450 turned out to be 0.180 under setting [7]; 1.540 under setting [8]; 1.221 under setting [9]; 0.947 under setting [10]; 0.716 under setting [11]; 0.481 under setting [12]. The A450 was 0.333 under setting [13] and 0.217 under setting [14]. Also, the “FS (functional sensitivity)” value (Conjugate I, lowest concentration with inter-assay CV <20%, 20 replicates) came to 0.045 ng/mL.
Regarding `COC(=O)C1CC(O)C(=O)C2C1(C)CCC1C(=O)OC(c3ccoc3)CC12C` (stereo not drawn) [Salvinorin B], the A450 is reported as 1.700 under setting [1]; 1.502 under setting [2]; 1.428 under setting [3]; 1.275 under setting [4]; 1.020 under setting [5]; 0.867 under setting [6]. The A450 under setting [7] is on record as 0.677; the A450 under setting [8] is 1.993; the A450 under setting [9] stood at 1.837; the A450 under setting [10] was 1.675; the A450 under setting [11] was determined as 1.433; the A450 under setting [12] is 1.189. The A450 was 1.005 under setting [13] and 0.779 under setting [14].

(Values after patent US9222949B2, “Salvinorin immunoassay” (priority 2009, dated 2015).)
